Consider six molecules from PMC13128448.

Chains of the proteins cited; added tags and fusions are not shown.
UniProt Q7L5N1: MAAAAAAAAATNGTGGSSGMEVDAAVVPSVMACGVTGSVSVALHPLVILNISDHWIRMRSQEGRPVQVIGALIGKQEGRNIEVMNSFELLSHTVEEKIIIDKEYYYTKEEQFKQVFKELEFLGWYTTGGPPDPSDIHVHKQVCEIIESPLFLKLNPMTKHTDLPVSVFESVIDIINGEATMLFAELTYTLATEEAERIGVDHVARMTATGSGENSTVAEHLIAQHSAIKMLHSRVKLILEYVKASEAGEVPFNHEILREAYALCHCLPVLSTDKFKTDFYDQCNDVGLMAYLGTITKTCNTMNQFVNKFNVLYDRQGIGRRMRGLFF
UniProt P61201: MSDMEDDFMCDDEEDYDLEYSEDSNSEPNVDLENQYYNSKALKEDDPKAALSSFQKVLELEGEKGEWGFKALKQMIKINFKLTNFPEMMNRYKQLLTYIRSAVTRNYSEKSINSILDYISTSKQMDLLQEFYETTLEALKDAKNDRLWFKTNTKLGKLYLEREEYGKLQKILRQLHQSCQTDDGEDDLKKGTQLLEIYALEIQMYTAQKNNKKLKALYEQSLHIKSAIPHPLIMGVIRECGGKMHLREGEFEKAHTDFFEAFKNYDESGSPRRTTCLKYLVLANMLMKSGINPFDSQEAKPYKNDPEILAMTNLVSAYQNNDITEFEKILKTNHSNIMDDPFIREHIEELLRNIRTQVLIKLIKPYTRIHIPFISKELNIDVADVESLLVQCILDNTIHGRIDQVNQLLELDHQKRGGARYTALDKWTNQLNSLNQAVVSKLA
UniProt Q13619: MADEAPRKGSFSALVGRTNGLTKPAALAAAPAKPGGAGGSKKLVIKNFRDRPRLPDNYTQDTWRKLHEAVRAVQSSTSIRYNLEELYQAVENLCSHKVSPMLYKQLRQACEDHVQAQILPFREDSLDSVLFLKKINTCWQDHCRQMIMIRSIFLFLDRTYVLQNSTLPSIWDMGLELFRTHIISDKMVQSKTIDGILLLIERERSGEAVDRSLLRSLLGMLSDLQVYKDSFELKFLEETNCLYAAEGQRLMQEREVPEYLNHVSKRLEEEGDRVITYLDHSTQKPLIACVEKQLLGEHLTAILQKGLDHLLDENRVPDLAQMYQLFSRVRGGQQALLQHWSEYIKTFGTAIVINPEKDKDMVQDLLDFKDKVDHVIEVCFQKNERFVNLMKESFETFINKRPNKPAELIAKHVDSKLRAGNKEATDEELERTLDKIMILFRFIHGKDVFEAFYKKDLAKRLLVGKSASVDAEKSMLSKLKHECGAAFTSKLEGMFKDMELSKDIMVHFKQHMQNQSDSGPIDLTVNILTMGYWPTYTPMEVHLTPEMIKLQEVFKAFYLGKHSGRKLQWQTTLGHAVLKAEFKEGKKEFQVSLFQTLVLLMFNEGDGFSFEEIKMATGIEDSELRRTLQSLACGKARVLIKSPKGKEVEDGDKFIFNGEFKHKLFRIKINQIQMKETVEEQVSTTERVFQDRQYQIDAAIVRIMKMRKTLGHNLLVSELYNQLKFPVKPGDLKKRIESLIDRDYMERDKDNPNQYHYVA
UniProt Q9UBF6: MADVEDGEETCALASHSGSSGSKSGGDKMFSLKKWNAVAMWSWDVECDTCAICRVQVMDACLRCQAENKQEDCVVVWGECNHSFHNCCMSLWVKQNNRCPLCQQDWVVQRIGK
UniProt Q92466: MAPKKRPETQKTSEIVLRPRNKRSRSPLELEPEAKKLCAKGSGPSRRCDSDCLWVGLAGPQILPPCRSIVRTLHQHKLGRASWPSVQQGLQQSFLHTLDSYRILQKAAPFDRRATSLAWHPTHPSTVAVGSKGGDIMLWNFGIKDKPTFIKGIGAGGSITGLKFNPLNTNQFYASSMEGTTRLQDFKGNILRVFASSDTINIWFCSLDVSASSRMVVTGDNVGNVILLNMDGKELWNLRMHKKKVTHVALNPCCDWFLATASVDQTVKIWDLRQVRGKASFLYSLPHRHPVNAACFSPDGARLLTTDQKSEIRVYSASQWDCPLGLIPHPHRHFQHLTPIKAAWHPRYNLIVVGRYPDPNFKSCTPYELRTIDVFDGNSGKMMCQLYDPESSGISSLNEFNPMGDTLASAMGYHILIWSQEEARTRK
UniProt Q16531: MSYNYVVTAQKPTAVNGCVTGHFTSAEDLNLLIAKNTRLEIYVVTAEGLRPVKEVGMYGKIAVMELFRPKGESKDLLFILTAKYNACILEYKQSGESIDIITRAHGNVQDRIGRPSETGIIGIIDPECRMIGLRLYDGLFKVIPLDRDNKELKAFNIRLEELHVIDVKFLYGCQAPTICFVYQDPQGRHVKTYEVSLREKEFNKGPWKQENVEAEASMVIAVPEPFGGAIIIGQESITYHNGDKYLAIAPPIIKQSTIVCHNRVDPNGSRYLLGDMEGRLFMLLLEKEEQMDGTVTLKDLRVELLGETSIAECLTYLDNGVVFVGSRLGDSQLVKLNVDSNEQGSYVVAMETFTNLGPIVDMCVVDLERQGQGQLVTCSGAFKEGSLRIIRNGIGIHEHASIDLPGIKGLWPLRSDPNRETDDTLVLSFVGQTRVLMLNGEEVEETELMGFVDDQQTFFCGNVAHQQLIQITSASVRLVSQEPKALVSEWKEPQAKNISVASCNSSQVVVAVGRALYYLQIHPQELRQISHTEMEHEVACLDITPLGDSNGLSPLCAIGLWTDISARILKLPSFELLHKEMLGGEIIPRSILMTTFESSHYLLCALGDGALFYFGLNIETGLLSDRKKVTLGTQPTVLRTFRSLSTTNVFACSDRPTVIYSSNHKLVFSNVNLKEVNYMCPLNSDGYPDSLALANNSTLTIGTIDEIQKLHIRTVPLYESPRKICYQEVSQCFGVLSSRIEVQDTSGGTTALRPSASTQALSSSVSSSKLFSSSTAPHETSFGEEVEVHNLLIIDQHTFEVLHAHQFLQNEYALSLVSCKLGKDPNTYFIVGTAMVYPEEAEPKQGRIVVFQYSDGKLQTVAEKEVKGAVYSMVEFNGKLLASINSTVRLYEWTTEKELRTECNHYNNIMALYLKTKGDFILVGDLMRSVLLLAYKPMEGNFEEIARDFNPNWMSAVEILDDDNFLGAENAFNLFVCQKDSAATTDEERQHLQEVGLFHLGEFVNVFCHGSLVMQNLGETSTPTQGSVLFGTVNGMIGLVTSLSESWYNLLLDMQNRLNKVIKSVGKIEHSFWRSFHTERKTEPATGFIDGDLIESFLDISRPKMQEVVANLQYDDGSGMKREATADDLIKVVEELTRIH

Like-named read-outs stand apart in the source and are kept apart here. No constants are given. Whether binding was seen depends on the method and setting. Binding seen in cells or lysates may run through a third protein. A yes stands for co-enrichment or nearness to the bait. Other partners may have been found.

Assay in all cases: affinity purification with mass spectrometry; HEK293T cells expressing HBTH-tagged CSN2 or CSN6, 1 μM CSN5i-3 or DMSO for 16 h; in-cell cross-linking with […] formaldehyde; streptavidin resin; DDA and DIA LC MS/MS
The target in experiment [1] is HBTH-tagged CSN6 (human) (UniProt Q7L5N1).
Experiment [2] has as its target HBTH-tagged CSN2 (human) (UniProt P61201).
Experiment [3] shares this target. The source holds these as a separate data set.
The target of experiment [4] is HBTH-tagged CSN6 (human) (UniProt Q7L5N1). This is another data set of the same source.

“CUL4A, endogenous (from UniProt Q13619 1-759)”: in experiment [1], the binding result is recorded as “binds”.

Consider “RBX2, endogenous (from UniProt Q9UBF6 1-113)”, for which the binding result in experiment [2] and in experiment [1] was “binds” each time.

Turning to “DDB2, endogenous (from UniProt Q92466 1-427)”, the binding result in experiment [2] and in experiment [1] was “binds” in each case.

With “DDB1, endogenous (from UniProt Q16531 1-1140)”, the binding entry in experiment [1] was “binds”.

B1: FBXL12, endogenous (protein, UniProt Q9NXK8 1-326)
chain: MATLVELPDSVLLEIFSYLPVRDRIRISRVCHRWKRLVDDRWLWRHVDLTLYTMRPKVMWHLLRRYMASRLHSLRMGGYLFSGSQAPQLSPALLRALGQKCPNLKRLCLHVADLSMVPITSLPSTLRTLELHSCEISMAWLHKQQDPTVLPLLECIVLDRVPAFRDEHLQGLTRFRALRSLVLGGTYRVTETGLDAGLQELSYLQRLEVLGCTLSADSTLLAISRHLRDVRKIRLTVRGLSAPGLAVLEGMPALESLCLQGPLVTPEMPSPTEILSSCLTMPKLRVLELQGLGWEGQEAEKILCKGLPHCMVIVRACPKESMDWWM
Consider B1, for which the binding entry in experiment [3] and in experiment [4] was “binds” in each case.

B2: DCAF4, endogenous (protein, UniProt Q8WV16 1-495)
chain: MNKSRWQSRRRHGRRSHQQNPWFRLRDSEDRSDSRAAQPAHDSGHGDDESPSTSSGTAGTSSVPELPGFYFDPEKKRYFRLLPGHNNCNPLTKESIRQKEMESKRLRLLQEEDRRKKIARMGFNASSMLRKSQLGFLNVTNYCHLAHELRLSCMERKKVQIRSMDPSALASDRFNLILADTNSDRLFTVNDVKVGGSKYGIINLQSLKTPTLKVFMHENLYFTNRKVNSVCWASLNHLDSHILLCLMGLAETPGCATLLPASLFVNSHPGIDRPGMLCSFRIPGAWSCAWSLNIQANNCFSTGLSRRVLLTNVVTGHRQSFGTNSDVLAQQFALMAPLLFNGCRSGEIFAIDLRCGNQGKGWKATRLFHDSAVTSVRILQDEQYLMASDMAGKIKLWDLRTTKCVRQYEGHVNEYAYLPLHVHEEEGILVAVGQDCYTRIWSLHDARLLRTIPSPYPASKADIPSVAFSSRLGGSRGAPGLLMAVGQDLYCYSYS
For B2, the binding result in experiment [3] and in experiment [4] was “binds” each time.
